The test concerns Salmonella enterica serovar Typhimurium SL1344. As to the kind of experiment: bacterial growth OD600 after 18 h with compound and polymyxin B; higher = more bacterial growth (less inhibition). The following applies: 50 µM, Mueller-Hinton broth.

This is one part of the list. These are raw signals, not scaled to a control.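 In the initial screen, polymyxin B was used at a concentration that permeabilizes Salmonella's outer membrane but not its inner membrane. Maximum growth was set by DMSO wells with or without polymyxin B. Since plates varied, data were ranked per plate, and compounds giving the lowest OD600 advanced as hits.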

Regarding `CN(Cc1ccccc1)C(=O)CCC1CCN(C(=O)CCN2CCCO2)CC1`, for the setting “polymyxin B 1 µg/mL”, the “bacterial growth OD600” value was found to be 0.979. With `CC(C)CCCC1CN(C(=O)c2cnc[nH]2)CCO1` (stereo not given), the “bacterial growth OD600” value (polymyxin B 0.75 µg/mL) was found to be 0.852. As for `Cc1ncccc1C(=O)N1CCC(C2CCN(c3ncccn3)CC2)C1` (stereo not given), the “bacterial growth OD600” value (polymyxin B 1 µg/mL) was 0.994. Still for that read-out and setting: the result for `O=C(c1cn(C2CCCCC2)nn1)N(CCO)Cc1ccccc1` reads 0.814. On to `COC(=O)[C@@H](NC(=O)C1CCCN1c1nc(C)c2ccc(S(C)(=O)=O)cc2n1)C(C)C` (stereo not given in full), for which the “bacterial growth OD600” value (polymyxin B 0.75 µg/mL) was found to be 0.942.

Take `CCC1CN(Cc2ccc(C#CC(C)(C)O)cc2)Cc2cc(OC)ccc2O1` (stereo not given): the “bacterial growth OD600” value (polymyxin B 0.75 µg/mL) was determined as 0.042. In the case of `COCc1ccc(C(=O)N2CCCC(CCc3ccc(F)cc3F)C2)o1` (stereo not given), for the setting “polymyxin B 0.75 µg/mL”, the “bacterial growth OD600” value turned out to be 0.643. On to `CCN1C(=O)CC(CC(=O)N(C)CCc2cnn(C)c2)(c2cccc(C(F)(F)F)c2)C1=O` (stereo not given), for which the “bacterial growth OD600” value (polymyxin B 0.75 µg/mL) was found to be 0.819.

Take `CC(C)CC(=O)Nc1ccnn1C1CCN(Cc2ccc3c(c2)CCO3)CC1`: the “bacterial growth OD600” value (polymyxin B 1 µg/mL) amounted to 0.808. Consider `CN1CCCC2(CCN(C(=O)c3cc4c(s3)CCCCC4)C2)C1=O` (stereo not given), for which, under “polymyxin B 1 µg/mL”, the “bacterial growth OD600” value came out at 0.889.

For `Cc1ccc(N2CCN(C(=O)CC3C(=O)NCCN3Cc3cccs3)CC2)c(C)c1` (stereo not given), the “bacterial growth OD600” value (polymyxin B 1 µg/mL) worked out at 0.779.

On to `COc1ccccc1Oc1ncccc1CNC(=O)C1(C)CC1`, for which the “bacterial growth OD600” value (polymyxin B 0.75 µg/mL) came to 0.765. Take `CC1=C(C(=O)NCc2nc(-c3ccccc3NC(=O)c3ccccc3)oc2C)OCCO1`: the “bacterial growth OD600” value (polymyxin B 0.75 µg/mL) amounted to 0.827.

Turning to `COc1ccc2c(C)nc(N3CCCC(C(=O)NCc4cccc(C)c4)C3)nc2c1` (stereo not given), the “bacterial growth OD600” value (polymyxin B 0.75 µg/mL) came to 0.008.

In the case of `Cc1nonc1CN(C)C(=O)CC(c1cccc(O)c1)c1ccccc1Cl` (stereo not given), under “polymyxin B 1 µg/mL”, the “bacterial growth OD600” value is 0.593.

As for `O=C(c1ccc(N2CCC(NCC3(c4ccccc4)CCCC3)CC2)cc1)N1CCCC(CO)C1` (stereo not given), the “bacterial growth OD600” value (polymyxin B 0.75 µg/mL) stood at 0.844. `CCOC(=O)N1CCC(NC(=O)C2CC23CCN(C(=O)c2cc4ccccc4n2C)CC3)CC1` (stereo not given): the “bacterial growth OD600” value (polymyxin B 0.75 µg/mL) came to 0.857.

As for `COc1ncc(CN2CCC(C3CCN(CC(C)(C)C)C3)CC2)cn1` (stereo not given), the “bacterial growth OD600” value (polymyxin B 0.75 µg/mL) is 0.79. For `CCOc1cccc(CN2CCc3nnc(C(CC(C)C)NC(C)=O)n3CC2)c1O` (stereo not given), under “polymyxin B 0.75 µg/mL”, the “bacterial growth OD600” value worked out at 0.808.

On to `O=C(CCN1CCCCO1)NCc1cccnc1N1CCCCCCC1`, for which the “bacterial growth OD600” value (polymyxin B 1 µg/mL) amounted to 0.955. Regarding `COC(=O)c1cc(CNC(=O)c2ccc(C)c(N3CCNC3=O)c2)cc(NC(=O)C2CCCCC2)c1`, the “bacterial growth OD600” value (polymyxin B 0.75 µg/mL) came out at 0.883. With `CN(C)CC(C)(O)c1ccc2c(c1)CN(Cc1cccc(C(F)(F)F)c1)CCO2` (stereo not given), the “bacterial growth OD600” value (polymyxin B 0.75 µg/mL) amounted to 0.82.

For `CC1(C(=O)N2CCC3(CCCN(Cc4cccc(F)c4F)C3=O)C2)CC1` (stereo not given), the “bacterial growth OD600” value (polymyxin B 1 µg/mL) was 0.772. Turning to `Cn1cc(CCC(=O)NC2CC(=O)N(Cc3cccc4ccccc34)C2)cn1` (stereo not given), the “bacterial growth OD600” value (polymyxin B 1 µg/mL) is 1.01. For the molecule `Cc1ccc(-n2cc([C@@H]3C[C@H]4CN(C5CCCC5)C(=O)[C@]45CCCN35)cn2)cc1`, the “bacterial growth OD600” value (polymyxin B 1 µg/mL) came out at 1.08. Take `CN(Cc1csc(-c2cccs2)n1)C(=O)c1cn(C2CC2)cc(C(=O)NC2CCCCC2)c1=O`: the “bacterial growth OD600” value (polymyxin B 0.75 µg/mL) stood at 0.699.

On to `CCS(=O)(=O)N1CCC2(CCCN(Cc3ccc(F)c(F)c3)C2=O)C1` (stereo not given), for which the “bacterial growth OD600” value (polymyxin B 1 µg/mL) was determined as 0.952. On the same count and under the same terms, the result for `CCS(=O)(=O)c1ncc(CN(C)Cc2nc3c(s2)CCCC3)n1CCOC` reads 1.14; that for `CCCc1ccc2oc(C(=O)N3CCN(CC(=O)NC(C)C)CC3)c(C)c2c1`, 0.752; that for `CSc1ccc(-c2nc(CN3CCN(c4ccc(Cl)cn4)CC3)c(C)o2)cc1`, 0.538.
